Tested on: msP rats
Assay: Two-bottle choice paradigm, voluntary 10% alcohol intake in msP rats
Format: in vivo, rat
Conditions: andrographolide 5 and 10 mg/kg i.p.; for food consumption: 0.5, 2, 8 and 24 hours
From the text: Male genetically selected alcohol-preferring rats were used. They were bred at the Department of Experimental Medicine and Public Health of the University of Camerino (Marche, Italy) for 64 generations from Sardinian alcohol-preferring (sP) rats of the 13th generation, provided by the Department of Neurosciences of the University of Cagliari (Colombo et al, 2006). They are referred to as Marchigian sP (msP) rats (Ciccocioppo et al, 2006). At the time of the experiments their body weight ranged between 300 and 350 g. They were kept in single cages in a room with a reverse 12:12 h light/dark cycle (lights off at 9:30 a.m.), temperature of 20-22° C. and humidity of 45-55%. Rats were offered free access to tap water and food pellets (4RF18, Mucedola, Settimo Milanese, Italy), except when noted. All the procedures were conducted in adherence with the European Community Council Directive for Care and Use of Laboratory Animals and the National Institutes of Health Guide for the Care and Use of Laboratory Animals.
A widely used method for testing fluid preference is the two-bottle choice paradigm, in which water and 10% (v/v) alcohol solution were offered in graduated drinking tubes equipped with metallic drinking spouts and their consumption was measured by reading the volume consumed from the graduated tubes. Food intake was measured by weighing the food containers and taking into account spillage. Alcohol, water and food intakes are expressed as g/kg to reduce the influence of differences in body weight.
To assess the effect of A. paniculata on voluntary alcohol intake, the inventor used the two-bottle choice paradigm in Marchigian Sardinian (msP) rats, a validated animal model of alcohol abuse (Ciccocioppo et al, 2006; Hansson et al, 2006). […]
Alcohol, water and food intake were monitored daily at 0.5, 2, 8 and 24 hours. For all the experiments performed, intakes were recorded for several additional days after the end of the drug treatment period. […]

C=C1CC[C@@H]2[C@](C)(CO)[C@H](O)CC[C@@]2(C)[C@@H]1C/C=C1/C(=O)OC[C@H]1O [andrographolide] was tested, and the water consumption was “not modified”, the food consumption was “not statistically significant” and the food consumption (listed as Andrographolide) was “not modified”.
